Results deposited as PubChem BioAssay AID1508588 (Peter MacCallum Cancer Centre, 2020).

Purpose: 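Genome-wide search for knock-downs that heighten vemurafenib action in melanoma cells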 (primary screen)
System: human WM266.4 melanoma cells (BRAF V600 mutant)
Knock-down reagent: siRNA pool against human genes, 40 nM
Timing: 96 h from transfection to read-out
Conditions: vemurafenib 300 nM (about IC25), added 48 h after transfection, for 48 h; comparison arm got DMSO vehicle only
Detection: 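Ratios to non-targeting siRNA for cell gain, counted as DAPI nuclei after minus before drug and averaged over two replicates, and for absorbance-read medium lactate per cell; both binned into fold-change classes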
Reading the numbers: cell gain with vemurafenib: higher = more cell gain than with non-targeting siRNA; lactate per cell with vemurafenib: higher = more lactate made per cell
Rule for the call: 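Enhancement is called by pairing each knock-down's vehicle-arm and drug-arm fold-change classes for viability or glycolysis; which class combinations qualify is not given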
Calls: active = enhances vemurafenib effect; inactive = no enhancement seen
Shown is an unselected part of about 18,000 deposited reagents. In the full data, 790 (4.4%) got an active call. 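Calls rest on a combination of fold-change classes in drug and vehicle arms, not all shown here.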

Target gene,cell gain with vemurafenib,lactate per cell with vemurafenib,call
MRI1,0.38,0.88,inactive
TJP1,0.67,1.09,inactive
SLC39A6,0.96,0.82,inactive
UBE2K,0.16,0.95,active
SERTAD2,0.75,0.54,inactive
APOBEC2,0.69,0.86,inactive
CD40LG,1,0.89,inactive
TCEA2,0.79,1.06,inactive
CD38,1.24,0.64,inactive
PCDHB16,1.03,0.8,inactive
RAMP3,0.73,0.57,inactive
SVOP,0.96,0.42,inactive
SMIM29,0.5,0.92,inactive
KAT2B,0.59,1,inactive
F8A3,0.27,2.09,inactive
GABARAPL2,0.41,2.02,inactive
EPHA6,-0.05,1,inactive
LAT,0.8,0.88,inactive
LCP2,0.76,1.3,inactive
TBC1D5,-0.08,0.36,active
PROSER1,-0.16,1.88,inactive
IL25,0.4,0.73,inactive
DDR2,0.72,0.7,inactive
METTL18,0.48,0.5,inactive
SNRNP48,0.18,0.56,inactive
XPA,0.9,0.77,inactive
RLF,0.61,1.24,inactive
PLEKHB1,0.32,1.49,inactive
TCAF2,0.13,2.6,inactive
INTS10,0.3,0.92,inactive
FBXW2,0.13,2.09,inactive
MEGF8,1.01,0.97,inactive
DPP8,0.6,0.54,inactive
C2orf15,0.38,0.84,inactive
ZNF219,0.93,0.57,inactive
PPP1R16A,0.72,1.5,inactive
PLK1,-0.11,3.29,inactive
EFCAB11,0.52,1.48,inactive

The list goes on (11 carried over from the part before).
Target gene,cell gain with vemurafenib,lactate per cell with vemurafenib,call
PLEKHB1,0.32,1.49,inactive
TCAF2,0.13,2.6,inactive
INTS10,0.3,0.92,inactive
FBXW2,0.13,2.09,inactive
MEGF8,1.01,0.97,inactive
DPP8,0.6,0.54,inactive
C2orf15,0.38,0.84,inactive
ZNF219,0.93,0.57,inactive
PPP1R16A,0.72,1.5,inactive
PLK1,-0.11,3.29,inactive
EFCAB11,0.52,1.48,inactive
CPLX4,0.6,0.76,inactive
TNFAIP1,0.72,0.88,inactive
LAPTM4B,0.8,0.84,inactive
CD180,0.78,1.04,inactive
SLCO5A1,0.41,0.78,inactive
NCALD,0.59,1.36,inactive
ELMO1,0.13,1.55,inactive
SMG5,0.68,0.9,inactive
GTF2A1,0.77,0.64,active
RAI2,0.6,0.78,inactive
LRRC19,0.78,0.8,inactive
IL36A,0.6,0.73,inactive
KLHL22,0.72,0.9,inactive
LCE2B,0.77,0.88,inactive
STRIP1,0.91,0.64,inactive
PLD2,0.74,0.8,inactive
NAPSA,0.67,1.03,inactive
LTA,0.68,0.6,inactive
SELENOI,0.66,0.43,inactive
CHRD,0.55,1.38,inactive
MAPK6,0.82,0.46,active
TCERG1L,0.21,0.9,inactive
KLC2,0.22,0.36,active
OR14J1,0.53,1.27,inactive
STK38,0.58,0.52,active
MAGEA2B,0.93,0.58,inactive
CPQ,0.37,1.59,inactive
GPAA1,0.65,0.54,inactive
FKBP1B,0.27,0.47,active
ASB8,0.76,0.8,inactive
EDDM3A,0.26,0.22,inactive
WNT2,0.49,1.27,inactive
XPO4,0.63,0.31,inactive
KAAG1,0.18,0.72,inactive
C16orf89,0.65,0.87,inactive
FAM86B1,0.18,1.87,inactive
INSYN1,0.5,1.39,inactive
ALDOB,0.86,0.99,inactive
SH2D1B,0.75,0.67,inactive
DMC1,0.51,0.9,inactive
XXYLT1,0.42,1.08,inactive
PRKX,0.7,0.57,inactive
R3HDML,0.87,1.4,inactive
LYPD4,0.81,0.68,inactive
ZNF582,0.44,1.69,inactive
CDC26,0.64,0.79,inactive
